We go through 38 compounds from PubChem BioAssay AID2685 (National Center for Advancing Translational Sciences (NCATS), 2010).

A short description of the assay: qHTS Assay for Lipid Storage Modulators in Drosophila S3 Cells.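 On cell number change: cells counted by Cell Tracker Red CMTPX staining in the red channel.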 To be noted: BODIPY lipid droplet fluorescence, 18-24 h; for cell number change: measured here: cell count max response, cells fed with added oleic acid. The method, boiled down: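 Drosophila S3 cells got compounds at several concentrations plus oleic acid (400 uM solution). Laser-scanning cytometry with 488 nm excitation read lipid droplets at 500-530 nm and cells at 575-640 nm. Percent activity was relative to 20 uM Triacsin C.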
On the technique in general: Quantitative high-throughput screening tests each substance at several concentrations.

The mark [1] stands for this setting: measured here: cell number channel AC50, cells fed with added oleic acid.
Where [2] appears, read: measured here: lipid fluorescence (Fed channel) AC50, cells fed with added oleic acid.

Some of the results follow. The main result of the screen is listed elsewhere. These columns were measured beside it and carry no call. Compounds called inactive in the main read-out are mostly missing here. The note in brackets gives the kind of curve behind each potency; many fits are weak.

Broadly, the AC50 is the concentration at which the activity in the assay is half-maximal. High values mean weaker potency, low ones greater potency.

With `CC(=O)N(CCCN(C)C)CCC(C)CCC=C(C)C` (stereo unspecified), the cell number change stood at 4.02%.

For `CCCCNC(=O)[C@@](CC)(ONc1ccccc1C(F)(F)F)c1cccc2ccccc12`, the cell number change is -36.1%. The AC50 under setting [1] was 16.4 µM [falling, single point].

With `Cc1cc(OCc2cc(C(=O)N3CCCCCC3)no2)cc(C)c1Cl`, the cell number change stood at 36.2%. Moreover, the AC50 under setting [1] was 0.231 µM [rising, full curve, poor fit]. Also, under setting [2], the AC50 is 29.1 µM [rising, single point].

For `COc1ccc(CCNC(=O)c2ccc(NS(=O)(=O)c3ccc4[nH]c(=O)[nH]c4c3)cc2)cc1OC`, the AC50 under setting [2] was 0.411 µM [falling, single point].

Take `CS(=O)(=O)N1CCN(c2ccc(NC(=O)c3cccnc3Cl)cc2)CC1`: the cell number change came to 51.9%. Further, the AC50 under setting [1] is 23.1 µM [rising, partial curve].

As for `O=C(Cc1ccccc1F)Nc1ccc(S(=O)(=O)Nc2ncccn2)cc1`, under setting [2], the AC50 is 0.231 µM [falling, full curve].

Regarding `Cc1ccc(NC(=O)CSc2nnc(-c3cccs3)n2Cc2ccco2)cc1`, the cell number change was -24.9%. Also, the AC50 under setting [2] is 6.51 µM [rising, single point].

Take `CN(Cc1cn(C)c2ccccc12)C(=S)Nc1cc(F)cc(F)c1`: the AC50 under setting [2] was 2.31 µM [rising, single point].

Turning to `CCOn1c(-n2nc(C)cc2C)nc2ccccc2c1=O`, the cell number change turned out to be 45.8%. Besides, the AC50 under setting [1] is 6.51 µM [rising, partial curve].

As to `COc1ccccc1CNc1ncnc2cc(Cl)ccc12`, the cell number change turned out to be 17.3%. Besides, the AC50 under setting [2] was 0.00731 µM [falling, full curve, poor fit].

Consider `Cn1c(C(C#N)C(=O)c2ccco2)nc2ccccc21` (stereo unspecified), for which the cell number change is -17.2%. In addition, the AC50 under setting [2] was 14.6 µM [rising, single point].

Take `CCOP(=O)(OCC)C(NC(=O)Nc1ccc(C)cc1)C(N)=O` (stereo unspecified): the cell number change turned out to be 30%. The AC50 under setting [2] is 1.64 µM [rising, full curve, poor fit].

As for `Cc1ccc(C(=O)C2=C(O)C(=O)N(CC3CCCO3)C2c2ccccc2F)o1` (stereo unspecified), the cell number change is -0.451%. For the same compound, the AC50 under setting [2] was 29.1 µM [rising, single point].

As for `Cc1cc(C)c(NC(=O)c2ccccc2C(=O)c2ccccc2)c(C)c1`, the cell number change is 43.1%. Also, the AC50 under setting [1] is 0.651 µM [rising, full curve]. Also, the AC50 under setting [2] was 5.17 µM [rising, full curve].

Consider `COc1ccc(C(=O)N=c2sc3ccccc3n2C)cc1OC`, for which the cell number change stood at 79%. Further, under setting [1], the AC50 is 29.1 µM [rising, single point].

In the case of `COc1ccc(NC(=O)N2CCN(C(=O)C3CCCO3)CC2)cc1` (stereo unspecified), the cell number change was 7.73%.

With `C(=N\Nc1ccccn1)/c1ccc(N2CCOCC2)cc1`, the cell number change is 24.5%. For the same compound, the AC50 under setting [2] is 0.164 µM [rising, full curve, poor fit].

Regarding `CCc1ccc(Nc2cc(C)nc3nc(C)nn23)cc1`, the cell number change is 22.2%. The AC50 under setting [2] is 6.51 µM [rising, partial curve].

As to `Cc1ccc(C)c(N2CC(C(=O)Nc3nccs3)CC2=O)c1` (stereo unspecified), the cell number change stood at 2.56%. The AC50 under setting [2] was 0.092 µM [rising, full curve, poor fit].

With `O=C(CNC(=O)c1cccs1)Nc1cccc(S(=O)(=O)N2CCOCC2)c1`, the cell number change was -83.7%. Also, the AC50 under setting [1] was 29.1 µM [falling, single point]. Besides, the AC50 under setting [2] was 3.26 µM [falling, partial curve].

Take `COc1ccc(N(CC(=O)NCC2CCCO2)S(=O)(=O)c2ccccc2)cc1OC` (stereo unspecified): the cell number change was 23.9%.

For the compound `CCc1noc(C)c1C(=O)OC(C)C(=O)c1c(C)[nH]c2ccccc12` (stereo unspecified), the cell number change is -16.6%.

On to `COCCCNC(CC(=O)Nc1ccc(OC)cc1OC)C(=O)O` (stereo unspecified), for which the cell number change came out at 1.34%.

Take `COCc1nnc(SCC(=O)NC(C)c2ccccc2)n1-c1ccccc1` (stereo unspecified): the cell number change turned out to be 33.2%. The AC50 under setting [1] is 3.26 µM [rising, full curve]. Under setting [2], the AC50 is 18.4 µM [rising, single point].

`CCOc1ccc(CCNC(=O)CSc2ncn[nH]2)cc1OCC`: the cell number change turned out to be 22.2%. Also, the AC50 under setting [2] was 16.4 µM [falling, single point].

For `CCCN1CCC(NC(=O)Nc2ccc([N+](=O)[O-])cc2)CC1`, the cell number change is 103%. Besides, the AC50 under setting [1] was 29.1 µM [rising, single point].

For `CCC1CCCCN1CC(=O)c1c(C)[nH]c2ccccc12` (stereo unspecified), the cell number change worked out at 56.9%. In addition, the AC50 under setting [1] was 5.8 µM [rising, partial curve].

As to `O=C1CC(NS(=O)(=O)c2ccc([N+](=O)[O-])cc2)CN1c1cccc(F)c1` (stereo unspecified), the cell number change was found to be 34%. Under setting [1], the AC50 is 4.11 µM [rising, full curve, poor fit].

`Cc1cccc(N2CCN(CC(O)COc3ccccc3Cl)CC2)c1` (stereo unspecified): the cell number change is -33%. In addition, the AC50 under setting [1] is 18.4 µM [falling, single point]. In addition, under setting [2], the AC50 was 0.0058 µM [falling, full curve, poor fit].

As for `O=C(CSc1nnc(-c2ccc3c(c2)OCCO3)o1)NC1CCCCC1`, the cell number change was -66.9%. Further, the AC50 under setting [1] was 5.8 µM [falling, full curve]. Moreover, the AC50 under setting [2] was 0.0082 µM [falling, full curve, poor fit].

With `CC[C@H](C)[C@H](NC(=O)OCc1ccccc1)C(=O)OCC(=O)Nc1ccc(N2CCOCC2)cc1`, the cell number change was 35.5%. The AC50 under setting [1] is 5.8 µM [rising, full curve].

In the case of `CCOC(=O)c1c(C)c2c(n1C)CCC/C2=N\O`, the cell number change stood at 74.3%. In addition, the AC50 under setting [1] is 1.46 µM [rising, full curve]. For the same compound, the AC50 under setting [2] is 0.731 µM [rising, full curve].

For `CC(Sc1nnc(Cc2ccccc2)n1C)C(=O)NC1CC1` (stereo unspecified), the cell number change came to 13.3%. Under setting [2], the AC50 was 0.0517 µM [rising, full curve].

Consider `CC(=O)c1nn(-c2ccc(Br)cc2)cc1C(=O)c1ccccc1`, for which the cell number change was 13.9%. Also, the half-maximal activity concentration (AC50) under setting [1] is 1.84 µM [rising, partial curve, poor fit]. Also, under setting [2], the AC50 was 2.59 µM [rising, full curve].

Consider `Cc1ccccc1CN1CCN(Cc2ccc3cccc(F)c3n2)CC1CCO` (stereo unspecified), for which the cell number change is -8.24%.

`Cc1ccc(C(=O)NC2CCN(S(=O)(=O)c3ccc(F)cc3)CC2)cc1`: the cell number change turned out to be 11.4%. In addition, the AC50 under setting [2] is 29.1 µM [rising, single point].

With `Cc1ccc(C(=O)CSc2nnc3c4ccccc4nc(Cc4ccccc4)n23)cc1`, the cell number change amounted to 23%. The concentration at half-maximal activity (AC50) under setting [2] is 2.91 µM [rising, partial curve].

As to `O=C(NCCCN1CCN(c2ccccc2F)CC1)C1CCCN(S(=O)(=O)c2cnc[nH]2)C1` (stereo unspecified), the cell number change turned out to be 31.8%. The AC50 under setting [1] is 20.6 µM [rising, single point]. Moreover, the AC50 under setting [2] is 1.16 µM [rising, single point].
